Data reported in PMC2822766.
Results are given in words; binding and its absence hold for the method and conditions named. In cells and extracts the contact can be indirect. Tags and fused reporters may be left off the sequences shown.

Amino acid sequences for entries named in this document (tags omitted). Residues count along the entry.
UniProt Q01097, residues 27-1482: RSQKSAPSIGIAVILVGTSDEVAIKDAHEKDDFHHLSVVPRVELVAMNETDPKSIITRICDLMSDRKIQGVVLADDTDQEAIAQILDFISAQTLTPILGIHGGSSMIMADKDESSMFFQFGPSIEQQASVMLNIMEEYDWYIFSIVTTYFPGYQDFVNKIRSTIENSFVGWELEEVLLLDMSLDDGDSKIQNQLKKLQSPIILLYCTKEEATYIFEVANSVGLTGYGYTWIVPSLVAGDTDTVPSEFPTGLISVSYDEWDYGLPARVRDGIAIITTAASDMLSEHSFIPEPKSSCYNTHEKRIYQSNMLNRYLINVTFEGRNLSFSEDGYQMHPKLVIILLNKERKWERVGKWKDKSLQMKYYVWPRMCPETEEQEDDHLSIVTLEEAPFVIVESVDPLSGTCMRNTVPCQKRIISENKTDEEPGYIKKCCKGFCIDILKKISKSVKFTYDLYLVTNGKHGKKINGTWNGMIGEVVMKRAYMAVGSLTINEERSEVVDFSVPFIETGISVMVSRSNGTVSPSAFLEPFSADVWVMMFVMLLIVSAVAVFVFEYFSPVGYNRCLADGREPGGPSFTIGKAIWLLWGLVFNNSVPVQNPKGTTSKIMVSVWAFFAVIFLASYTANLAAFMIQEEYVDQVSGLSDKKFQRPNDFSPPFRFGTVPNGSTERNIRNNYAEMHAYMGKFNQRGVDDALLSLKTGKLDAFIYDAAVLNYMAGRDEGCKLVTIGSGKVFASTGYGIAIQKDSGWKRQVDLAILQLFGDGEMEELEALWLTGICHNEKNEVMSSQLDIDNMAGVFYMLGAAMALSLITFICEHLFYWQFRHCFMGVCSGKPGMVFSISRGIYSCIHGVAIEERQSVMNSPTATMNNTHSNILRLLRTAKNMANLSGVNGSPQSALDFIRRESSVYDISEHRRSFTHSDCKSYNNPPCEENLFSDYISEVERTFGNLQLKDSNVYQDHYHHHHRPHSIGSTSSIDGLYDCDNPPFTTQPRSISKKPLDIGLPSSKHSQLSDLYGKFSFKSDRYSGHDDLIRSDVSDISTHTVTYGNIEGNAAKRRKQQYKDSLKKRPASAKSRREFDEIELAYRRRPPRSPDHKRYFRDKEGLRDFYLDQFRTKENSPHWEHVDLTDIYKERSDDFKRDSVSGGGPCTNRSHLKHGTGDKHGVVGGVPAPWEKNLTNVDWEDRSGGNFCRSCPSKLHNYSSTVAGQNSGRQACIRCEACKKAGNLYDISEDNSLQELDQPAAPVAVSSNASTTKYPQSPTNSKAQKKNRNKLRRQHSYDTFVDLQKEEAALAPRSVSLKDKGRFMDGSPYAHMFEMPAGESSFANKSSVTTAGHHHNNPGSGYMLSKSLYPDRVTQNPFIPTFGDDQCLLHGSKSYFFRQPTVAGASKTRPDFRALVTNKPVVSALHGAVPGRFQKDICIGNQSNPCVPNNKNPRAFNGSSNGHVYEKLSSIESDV

Molecular target: T1, DREAM (downstream regulatory element antagonist modulator) (mouse (endogenous in hippocampus)) (UniProt Q9QXT8)
T1 sequence: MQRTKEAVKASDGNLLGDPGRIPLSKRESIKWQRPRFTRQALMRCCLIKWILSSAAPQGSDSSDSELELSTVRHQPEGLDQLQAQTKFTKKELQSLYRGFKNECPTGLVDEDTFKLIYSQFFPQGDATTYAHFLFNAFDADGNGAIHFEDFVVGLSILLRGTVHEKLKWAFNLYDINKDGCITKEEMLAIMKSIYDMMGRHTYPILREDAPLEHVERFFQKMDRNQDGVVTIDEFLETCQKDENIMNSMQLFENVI
Assay: co-IP; hippocampal extracts from wild-type mice; Tris pH 7.5 50 mM, NaCl 150 mM, NP40 1%, Na-deoxycholate […]; 5 ug DREAM antibody (or PSD-95 antibody), protein A magnetic beads; absence of Ca2+ corresponds to 2 mM EDTA

Row | Substance | binding
1 | NMDA receptor subunit NR2A (from UniProt P35436 23-1464) | no binding
2 | NMDA receptor subunit NR2B (from UniProt Q01097 27-1482) | no binding
